Experimental data: the supplement of paper PMC8728848
The list shows a part of the results.

Legend:
Assay in all cases: glycan array binding signal (z-score within array); higher = stronger binding
Settings in all cases: glycan notation: IUPAC condensed, linker removed
[1] = molecular target: Neu5Ac(a2-6)GlcNAc(b1-4)GlcNAc(b1-4)GlcNAc
Summary of the method: (§1)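 The binding signal is a Z-score computed within each array. Data were drawn from 3228 arrays in the Consortium for Functional Glycomics database, restricted to those with a known protein sequence. Scores were averaged over arrays of the same protein sequence at different concentrations or buffers, and over linkers, and negative values can be taken as non-binding.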

[2] = molecular target: Neu5Ac(a2-8)Neu5Ac
Summary of the method: as §1

[3] = molecular target: Neu5Ac(a2-8)Neu5Ac(a2-3)Gal(b1-3)GalNAc(b1-4)[Neu5Ac(a2-3)]Gal(b1-4)Glc
Summary of the method: as §1

[4] = molecular target: Neu5Ac(a2-8)Neu5Ac(a2-3)Gal(b1-3)GalNAc(b1-4)[Neu5Ac(a2-8)Neu5Ac(a2-3)]Gal(b1-4)Glc
Summary of the method: as §1

[5] = molecular target: Neu5Ac(a2-8)Neu5Ac(a2-3)Gal(b1-4)Glc
Summary of the method: as §1

[6] = molecular target: Neu5Ac(a2-8)Neu5Ac(a2-3)Gal(b1-4)GlcNAc
Summary of the method: as §1

[7] = molecular target: Neu5Ac(a2-8)Neu5Ac(a2-3)[Gal(b1-3)GalNAc(b1-4)]Gal(b1-4)Glc
Summary of the method: as §1

[8] = molecular target: Neu5Ac(a2-8)Neu5Ac(a2-3)[GalNAc(b1-4)]Gal(b1-4)Glc
Summary of the method: as §1

[9] = molecular target: Neu5Ac(a2-8)Neu5Ac(a2-8)Neu5Ac
Summary of the method: as §1

[10] = molecular target: Neu5Ac(a2-8)Neu5Ac(a2-8)Neu5Ac(a2-3)Gal(b1-4)Glc
Summary of the method: as §1

[11] = molecular target: Neu5Ac(a2-8)Neu5Ac(a2-8)Neu5Ac(a2-3)[Gal(b1-3)GalNAc(b1-4)]Gal(b1-4)Glc
Summary of the method: as §1

[12] = molecular target: Neu5Ac(a2-8)Neu5Ac(a2-8)Neu5Ac(a2-3)[GalNAc(b1-4)]Gal(b1-4)Glc
Summary of the method: as §1

[13] = molecular target: Neu5Ac(a2-8)Neu5Ac(a2-8)Neu5Ac(a2-8)Neu5Ac(a2-3)[GalNAc(b1-4)]Gal(b1-4)Glc
Summary of the method: as §1

[14] = molecular target: Neu5Ac(a2-8)Neu5Gc(a2-3)Gal(b1-4)GlcNAc
Summary of the method: as §1

[15] = molecular target: Neu5Ac(b2-6)Gal(b1-4)GlcNAc
Summary of the method: as §1

[16] = molecular target: Neu5Ac(b2-6)GalNAc
Summary of the method: as §1

[17] = molecular target: Neu5Ac9Ac(a2-3)Gal(b1-3)GlcNAc
Summary of the method: as §1

[18] = molecular target: Neu5Ac9Ac(a2-3)Gal(b1-4)GlcNAc
Summary of the method: as §1

[19] = molecular target: Neu5Ac9Ac(a2-6)Gal(b1-4)GlcNAc
Summary of the method: as §1

[20] = molecular target: Neu5Gc(a2-3)Gal(b1-3)GlcNAc
Summary of the method: as §1

[21] = molecular target: Neu5Gc(a2-3)Gal(b1-3)[Fuc(a1-4)]GlcNAc
Summary of the method: as §1

[22] = molecular target: Neu5Gc(a2-3)Gal(b1-4)Glc
Summary of the method: as §1

[23] = molecular target: Neu5Gc(a2-3)Gal(b1-4)GlcNAc
Summary of the method: as §1

[24] = molecular target: Neu5Gc(a2-3)Gal(b1-4)GlcNAc(b1-3)Gal(b1-4)GlcNAc(b1-2)Man(a1-3)[Neu5Gc(a2-3)Gal(b1-4)GlcNAc(b1-3)Gal(b1-4)GlcNAc(b1-2)Man(a1-6)]Man(b1-4)GlcNAc(b1-4)GlcNAc
Summary of the method: as §1

[25] = molecular target: Neu5Gc(a2-3)Gal(b1-4)[Fuc(a1-3)]GlcNAc
Summary of the method: as §1

[26] = molecular target: Neu5Gc(a2-6)Gal(b1-4)GlcNAc
Summary of the method: as §1

[27] = molecular target: Neu5Gc(a2-6)GalNAc
Summary of the method: as §1

[28] = molecular target: Neu5Gc(a2-8)Neu5Ac(a2-3)Gal(b1-4)GlcNAc
Summary of the method: as §1

[29] = molecular target: Neu5Gc(a2-8)Neu5Gc(a2-3)Gal(b1-4)GlcNAc
Summary of the method: as §1

[30] = molecular target: Neu5Gc(a2-8)Neu5Gc(a2-3)Gal(b1-4)GlcNAc(b1-3)Gal(b1-4)GlcNAc
Summary of the method: as §1

[31] = molecular target: Neu5Gc(a2-8)Neu5Gc(a2-6)Gal(b1-4)GlcNAc
Summary of the method: as §1

[32] = molecular target: Neu5Gc(b2-6)Gal(b1-4)GlcNAc
Summary of the method: as §1

B1: LlpA (Burkholderia cenocepacia) (protein)
chain: MGSSHHHHHHSSGLVPRGSHKILGSNETLSAGNVVYSDNGQYHLAMQTDGNLVVYGPTGAVWQSQTSGSGGNRAVMQGDGNLVIYRADNTAAWSSKTAHPGAFLAVQDDGNVVIYWPRPAWASNTSDPATQQSAESKYLASGSTMSAGQTVTVAQYMLVFQADGNLVLYKNGGNPIWSTGTQGKGATYAVMQSDGNFVIYAGSTALWSTKTNGANGAQLVLQSDGNLVIYAPTAAWSTKFGLVTAPTSTSTSNNGPGSGICVGVCPPHPLNGNPFSPVGVGTTGLGFPTPGYPGAAF
[1]
  glycan array binding signal (z-score): -0.76
[2]
  glycan array binding signal (z-score): 0.126
[3]
  glycan array binding signal (z-score): 0.988
[4]
  glycan array binding signal (z-score): 0.947
[5]
  glycan array binding signal (z-score): -1.11
[6]
  glycan array binding signal (z-score): -0.759
[7]
  glycan array binding signal (z-score): -0.216
[8]
  glycan array binding signal (z-score): -0.208
[9]
  glycan array binding signal (z-score): 0.546
[10]
  glycan array binding signal (z-score): 0.253
[11]
  glycan array binding signal (z-score): -0.618
[12]
  glycan array binding signal (z-score): 0.351
[13]
  glycan array binding signal (z-score): 0.029
[14]
  glycan array binding signal (z-score): -1.03
[15]
  glycan array binding signal (z-score): 0.391
[16]
  glycan array binding signal (z-score): -0.883
[17]
  glycan array binding signal (z-score): -0.027
[18]
  glycan array binding signal (z-score): -0.412
[19]
  glycan array binding signal (z-score): 0.934
[20]
  glycan array binding signal (z-score): -0.35
[21]
  glycan array binding signal (z-score): 0.289
[22]
  glycan array binding signal (z-score): 0.058
[23]
  glycan array binding signal (z-score): -0.079
[24]
  glycan array binding signal (z-score): -0.02
[25]
  glycan array binding signal (z-score): -0.189
[26]
  glycan array binding signal (z-score): 1.6
[27]
  glycan array binding signal (z-score): 0.385
[28]
  glycan array binding signal (z-score): -0.667
[29]
  glycan array binding signal (z-score): -1.13
[30]
  glycan array binding signal (z-score): -1.22
[31]
  glycan array binding signal (z-score): 0.117
[32]
  glycan array binding signal (z-score): 0.828
